Reference: US20260306644A1, “ANTIBODY RECRUITING MOLECULES FOR THE TREATMENT OF CORONAVIRUS DISEASE-19” (priority 2023, published 2026)
Not every detail of the peptide structures is certain; ends, links or a residue may be inferred.

System: live SARS-CoV-2 Virus (wildtype)
Assay: Neutralization of live SARS-CoV-2 virus, wildtype (Vero E6 cells, nucleoprotein ELISA)
Type: cell-based
Conditions: read-out: Seattle WA (IITRI) EC50

CC[C@H](C)[C@H](NC(=O)[C@H](CCC(=O)O)NC(=O)[C@H](CCC(=O)O)NC(=O)[C@H](CC(=O)O)NC(=O)[C@H](CCCCN)NC(=O)[C@H](C)NC(=O)[C@H](Cc1ccccc1)NC(=O)[C@H](Cc1c[nH]cn1)NC(=O)[C@H](CC(C)C)NC(=O)[C@H](C)NC(=O)[C@H](CCC(=O)O)NC(=O)[C@H](Cc1ccc(O)cc1)NC(=O)[C@@H](NC(=O)[C@H](CC(C)C)NC(=O)[C@H](CC(=O)O)NC(=O)[C@@H](NC(=O)[C@H](CCSC)NC(=O)[C@H](CC(C)C)NC(=O)[C@H](CCSC)NC(=O)[C@H](Cc1c[nH]cn1)NC(=O)[C@H](CC(C)C)NC(=O)[C@H](CCC(=O)O)NC(=O)[C@H](CC(=O)O)NC(=O)[C@H](CC(=O)O)NC(=O)[C@@H](N)CC(N)=O)[C@@H](C)O)C(C)C)C(=O)N[C@@H](CCCCN)C(=O)N[C@@H](CCCCN)C(=O)N[C@@H](CCCNC(=N)N)C(=O)N[C@H](C(=O)N[C@@H](Cc1ccccc1)C(=O)N[C@@H](CCC(N)=O)C(=O)N[C@@H](CC(C)C)C(=O)N[C@@H](Cc1ccccc1)C(=O)N[C@@H](CCC(=O)O)C(=O)N[C@@H](CC(C)C)C(=O)N[C@@H](C)C(=O)N[C@@H](CC(=O)O)C(=O)N[C@@H](CCCCN)C(=O)N[C@@H](C)C(=O)N[C@@H](Cc1ccc(O)cc1)C(=O)N[C@@H](CCCCN)C(=O)N[C@@H](CC(N)=O)C(=O)N[C@@H](CC(N)=O)C(=O)N[C@@H](CC(=O)O)C(=O)N[C@@H](CCCNC(=N)N)C(=O)N[C@@H](CCC(N)=O)C(=O)N[C@@H](CCCCN)C(=O)N[C@@H](CC(C)C)C(=O)N[C@@H](CCC(=O)O)C(=O)N[C@@H](CCCCN)C(=O)N[C@H](C(=O)N[C@H](C(=O)N[C@@H](CCC(=O)O)C(=O)N[C@@H](CCC(=O)O)C(=O)N[C@@H](CC(C)C)C(=O)N[C@@H](CCCCN)C(=O)N[C@@H](CCC(=O)O)C(=O)N[C@@H](CC(C)C)C(=O)N[C@@H](CC(C)C)C(=O)N[C@@H](CCC(=O)O)C(=O)N[C@@H](CCCNC(=N)N)C(=O)N[C@@H](CC(C)C)C(=O)N[C@@H](CC(C)C)C(=O)N[C@@H](CO)C(=O)NCCOCCOCCOCCOCCOCCOCCOCCOCCC(=O)NCCOCCOCCOCCOCCOCCOCCOCCOCCC(=O)N[C@@H](CC(=O)O)C(=O)N[C@H]1CSSC[C@@H](C(=O)N[C@H](C(N)=O)[C@@H](C)O)NC(=O)[C@H](Cc2c[nH]c3ccccc23)NC(=O)[C@H](C(C)C)NC(=O)[C@H](CC(C)C)NC(=O)[C@H](CCC(=O)O)NC(=O)CNC(=O)[C@H](CC(C)C)NC(=O)[C@H](Cc2c[nH]cn2)NC(=O)[C@H](Cc2c[nH]c3ccccc23)NC(=O)[C@H](C)NC1=O)C(C)C)C(C)C)C(C)C [Compound 125]
EC50: 2.3 nM
